The assay deals with Flag-Plk1 F559D mutant (human) (UniProt P53350). As to the kind of experiment: co-IP; anti-Flag immunoprecipitation from HeLa cells stably expressing Flag-Plk1 WT or F559D, TBSN buffer (20 mM Tris-Cl pH 8.0, 150 mM NaCl, 0.5% NP-40); cells treated with 600 nM nocodazole 16 h and 300 nM okadaic acid 1.5 h, and with DMSO or 20 μM Allopole for 2 h; immunoblot.

Sequences of proteins named here, by UniProt entry; tags and fusion partners are left off. A change or cut given only in a name is not applied to a line headed by its entry.
UniProt P53350: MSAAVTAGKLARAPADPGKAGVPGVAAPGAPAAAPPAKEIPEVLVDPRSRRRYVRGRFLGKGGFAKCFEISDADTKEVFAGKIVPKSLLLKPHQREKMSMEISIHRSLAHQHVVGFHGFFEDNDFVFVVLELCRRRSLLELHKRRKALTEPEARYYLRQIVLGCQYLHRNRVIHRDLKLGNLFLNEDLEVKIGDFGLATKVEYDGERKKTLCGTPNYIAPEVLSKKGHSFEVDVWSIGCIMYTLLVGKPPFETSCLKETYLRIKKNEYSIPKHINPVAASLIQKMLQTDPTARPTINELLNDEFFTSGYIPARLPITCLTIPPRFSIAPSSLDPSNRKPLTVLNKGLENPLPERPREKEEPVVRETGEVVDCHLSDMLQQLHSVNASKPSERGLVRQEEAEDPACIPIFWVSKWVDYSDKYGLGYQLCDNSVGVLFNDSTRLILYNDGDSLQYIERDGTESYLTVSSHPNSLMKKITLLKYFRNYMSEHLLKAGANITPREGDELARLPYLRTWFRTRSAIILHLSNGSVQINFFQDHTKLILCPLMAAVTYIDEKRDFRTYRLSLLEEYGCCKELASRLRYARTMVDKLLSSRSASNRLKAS

These results are taken from PMC10629583, “Specific inhibition of an anticancer target, polo-like kinase 1, by allosterically dismantling its mechanism of substrate recognition” (Proceedings of the National Academy of Sciences of the …, 2023).

No constants are given. Whether binding was seen depends on the method and setting. In cells and extracts the contact can be indirect. Some entries that bind do so weakly or less than the wild type.

B1: phosphorylated Cdc25C (protein, UniProt P30307 1-473)
chain: MSTELFSSTREEGSSGSGPSFRSNQRKMLNLLLERDTSFTVCPDVPRTPVGKFLGDSANLSILSGGTPKRCLDLSNLSSGEITATQLTTSADLDETGHLDSSGLQEVHLAGMNHDQHLMKCSPAQLLCSTPNGLDRGHRKRDAMCSSSANKENDNGNLVDSEMKYLGSPITTVPKLDKNPNLGEDQAEEISDELMEFSLKDQEAKVSRSGLYRSPSMPENLNRPRLKQVEKFKDNTIPDKVKKKYFSGQGKLRKGLCLKKTVSLCDITITQMLEEDSNQGHLIGDFSKVCALPTVSGKHQDLKYVNPETVAALLSGKFQGLIEKFYVIDCRYPYEYLGGHIQGALNLYSQEELFNFFLKKPIVPLDTQKRIIIVFHCEFSSERGPRMCRCLREEDRSLNQYPALYYPELYILKGGYRDFFPEYMELCEPQSYCPMHHQDHKTELLRCRSQSKVQEGERQLREQIALLVKDMSP
modifications: phosphorylated (sites not given)
In the case of B1, the binding result is recorded as “binds”.
